Results on six molecules are retold here after PMC7710356, “RNF41 regulates the damage recognition receptor Clec9A and antigen cross-presentation in mouse dendritic cells” (eLife, 2020).

Amino acid sequences for entries named in this document (tags omitted). A change or cut given only in a name is not applied to a line headed by its entry. Residues count along the entry.
UniProt Q8BRU4: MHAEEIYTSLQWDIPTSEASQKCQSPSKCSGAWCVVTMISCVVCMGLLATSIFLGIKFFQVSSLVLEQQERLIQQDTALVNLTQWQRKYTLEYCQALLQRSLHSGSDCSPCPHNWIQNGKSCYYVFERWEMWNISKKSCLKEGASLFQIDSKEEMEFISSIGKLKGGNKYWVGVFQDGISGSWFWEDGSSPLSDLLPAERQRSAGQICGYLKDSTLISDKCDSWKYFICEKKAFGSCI
UniProt P27824, residues 21-592: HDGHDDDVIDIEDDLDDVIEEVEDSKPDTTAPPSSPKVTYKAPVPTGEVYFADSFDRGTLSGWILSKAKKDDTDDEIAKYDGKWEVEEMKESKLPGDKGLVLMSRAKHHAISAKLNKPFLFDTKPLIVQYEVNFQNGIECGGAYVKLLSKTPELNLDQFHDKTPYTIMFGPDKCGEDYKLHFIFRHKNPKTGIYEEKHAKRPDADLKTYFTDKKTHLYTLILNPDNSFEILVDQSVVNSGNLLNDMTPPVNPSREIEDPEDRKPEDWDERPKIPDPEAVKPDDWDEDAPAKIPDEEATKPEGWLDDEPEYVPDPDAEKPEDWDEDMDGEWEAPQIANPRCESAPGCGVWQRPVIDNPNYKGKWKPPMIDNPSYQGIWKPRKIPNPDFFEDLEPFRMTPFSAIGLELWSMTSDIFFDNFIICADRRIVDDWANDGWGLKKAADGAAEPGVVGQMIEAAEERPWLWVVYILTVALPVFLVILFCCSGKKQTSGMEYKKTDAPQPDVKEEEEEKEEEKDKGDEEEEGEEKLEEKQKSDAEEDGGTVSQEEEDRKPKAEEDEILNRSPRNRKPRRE
UniProt P61619: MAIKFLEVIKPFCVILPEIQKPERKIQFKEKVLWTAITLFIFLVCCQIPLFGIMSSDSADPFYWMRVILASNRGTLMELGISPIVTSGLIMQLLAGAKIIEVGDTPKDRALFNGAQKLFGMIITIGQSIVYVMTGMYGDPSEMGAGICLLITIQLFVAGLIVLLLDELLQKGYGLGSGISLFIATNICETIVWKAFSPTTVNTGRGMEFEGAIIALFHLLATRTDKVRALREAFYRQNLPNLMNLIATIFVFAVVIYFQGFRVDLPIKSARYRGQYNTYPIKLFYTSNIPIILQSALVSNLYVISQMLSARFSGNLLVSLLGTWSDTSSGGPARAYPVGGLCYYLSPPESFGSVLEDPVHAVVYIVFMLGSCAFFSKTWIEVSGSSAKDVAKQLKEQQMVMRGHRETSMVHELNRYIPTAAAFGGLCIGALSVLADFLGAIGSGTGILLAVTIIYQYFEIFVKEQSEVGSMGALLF

Results are given in words; binding and its absence hold for the method and conditions named. In cells and extracts the contact can be indirect. Here binding means that the protein was enriched with, or labelled near, the bait; the list need not be complete.

For this assay, the target named is FLAG-tagged full length mouse Clec9A (mClec9A-FLAG) (mouse) (UniProt Q8BRU4). In words: affinity purification with mass spectrometry; 293F cells transfected with mClec9A-FLAG with or without RNF41 or RNF41-ΔRING; anti-FLAG IP in 1% Triton X-100, 150 mM NaCl, 1 mM EDTA, 50 mM Tris pH 6.0; LC-MS/MS.

As for “calnexin (CANX; endogenous, 293F cells) (from UniProt P27824 21-592)”, the binding result is “binds”.

Consider “calreticulin (CALR; endogenous, 293F cells) (from UniProt P27797 18-417)”, for which the binding entry is reported as “binds”.

As for “translocon Sec61A1 (endogenous, 293F cells) (from UniProt P61619 1-476)”, the binding entry was “binds”.

B1: Erlin2 (endogenous, 293F cells) (protein, UniProt O94905 1-339)
chain: MAQLGAVVAVASSFFCASLFSAVHKIEEGHIGVYYRGGALLTSTSGPGFHLMLPFITSYKSVQTTLQTDEVKNVPCGTSGGVMIYFDRIEVVNFLVPNAVYDIVKNYTADYDKALIFNKIHHELNQFCSVHTLQEVYIELFDQIDENLKLALQQDLTSMAPGLVIQAVRVTKPNIPEAIRRNYELMESEKTKLLIAAQKQKVVEKEAETERKKALIEAEKVAQVAEITYGQKVMEKETEKKISEIEDAAFLAREKAKADAECYTAMKIAEANKLKLTPEYLQLMKYKAIASNSKIYFGKDIPNMFMDSAGSVSKQFEGLADKLSFGLEDEPLETATKEN
Turning to B1, the binding entry is on record as “binds”.

B2: RNF41 full-length (mammalian expression construct in pcDNA3.1+) (enzyme, UniProt Q9H4P4 1-317)
chain: MGYDVTRFQGDVDEDLICPICSGVLEEPVQAPHCEHAFCNACITQWFSQQQTCPVDRSVVTVAHLRPVPRIMRNMLSKLQIACDNAVFGCSAVVRLDNLMSHLSDCEHNPKRPVTCEQGCGLEMPKDELPNHNCIKHLRSVVQQQQTRIAELEKTSAEHKHQLAEQKRDIQLLKAYMRAIRSVNPNLQNLEETIEYNEILEWVNSLQPARVTRWGGMISTPDAVLQAVIKRSLVESGCPASIVNELIENAHERSWPQGLATLETRQMNRRYYENYVAKRIPGKQAVVVMACENQHMGDDMVQEPGLVMIFAHGVEEI
In the case of B2, the binding result was “binds”.

B3: Erlin1 (endogenous, 293F cells) (protein, UniProt O75477 1-348)
chain: MNMTQARVLVAAVVGLVAVLLYASIHKIEEGHLAVYYRGGALLTSPSGPGYHIMLPFITTFRSVQTTLQTDEVKNVPCGTSGGVMIYIDRIEVVNMLAPYAVFDIVRNYTADYDKTLIFNKIHHELNQFCSAHTLQEVYIELFDQIDENLKQALQKDLNLMAPGLTIQAVRVTKPKIPEAIRRNFELMEAEKTKLLIAAQKQKVVEKEAETERKKAVIEAEKIAQVAKIRFQQKVMEKETEKRISEIEDAAFLAREKAKADAEYYAAHKYATSNKHKLTPEYLELKKYQAIASNSKIYFGSNIPNMFVDSSCALKYSDIRTGRESSLPSKEALEPSGENVIQNKESTG
As for B3, the binding entry is reported as “binds”.
